Target: CREI-96 (truncated Carbon catabolite repressor 1, Cre1-96) (Trichoderma reesei Rut-C30) (UniProt G0RB08)
Experiment: EMSA
Conditions: 500, 1000, 2000 nM protein, 4 ng probe, two shifted bands; GST elution buffer, 10 min at 22 °C; non-denaturing PAGE; salt and pH not stated; recombinant …; residues 1-96; protein details: GST fusion (37 kDa), thrombin-cleaved before use; label: 6-FAM on both primers (RG89, RG90); probe letters rebuilt from the primers and the genome

The chains behind the UniProt entries cited, without tags or fusion partners.
UniProt G0RB08, entry or part of it: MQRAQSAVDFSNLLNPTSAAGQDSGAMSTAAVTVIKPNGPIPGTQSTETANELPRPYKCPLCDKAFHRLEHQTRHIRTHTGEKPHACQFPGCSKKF

GTAGAGGCATGTTGTGAATCTGTGTCGGGCAGGACACGCCTCGAAGGTTCACGGCAAGGGAAACCACCGATAGCAGTGTCTAGTAGCAACCTGTAAAGCCGCAATGCAGCATCACTGGAAAATACAAACCAATGGCTAAAAGTACATAAGTTAATGCCTAAAGAAGTCATATACCAGCGGCTAATAATTGTACAATCAAGTGGCTAAACGTACCGTAATTTGCCAACGGCTTGTGGGGTTGCAGAAGCAACGGCAAAGCCCCACTTCCCCACGTTTGTTTCTTCACTCAGTCCAATCTCAGCTGGTGATCCCCCAATTGGGTCGCTTGTTTGTTCCGGTGAAGTGAAAGAAGACAGAGGTAAGAATGTCTGACTCGGAGCGTTTTGCATACAACC (double strand) [cbh1 URR probe (400 bp PCR product)]
binding result: binds
